The target of assay [1] is myc-BirA∗-DDB1 (human (cDNA from HeLa and HEK293 cells)) (UniProt Q16531). Kind of assay: proximity labelling; BioID with myc-BirA∗-DDB1 as bait in U2OS Flp-In T-Rex cells; doxycycline, 50 μM biotin 24 h; denaturing lysis, streptavidin beads, LC-MS/MS; SILAC: bait cells heavy (R10K8), myc-BirA∗ control cells light (R0K0); enriched = H/L ratio over 2; N = 3.
Assay [2] addresses GFP-DDB1 (human (cDNA from HeLa and HEK293 cells)), Q16531. The experiment in a line: affinity purification with mass spectrometry; GFP-DDB1 from U2OS Flp-In T-Rex lysate (50 mM Tris pH 7.4, NaCl, 1% Triton X-100, nuclease) on GFP-trap agarose beads, 3 h at 4 °C; SILAC: bait cells heavy (R10K8), GFP control cells light (R0K0); enriched = H/L ratio over 2; N = 3. The note with it: remark: other sources report otherwise.

Assay [3] addresses GFP-DDB1 (human (cDNA from HeLa and HEK293 cells)) (UniProt Q16531). Described as above.

These are yes or no findings as the source states them, for the method shown. Binding seen in cells or lysates may run through a third protein. These calls come from enrichment with a bait or labelling near it, and not all partners need be listed.

B1: TRPC4AP (protein, UniProt Q8TEL6 1-797)
chain: MAAAPVAAGSGAGRGRRSAATVAAWGGWGGRPRPGNILLQLRQGQLTGRGLVRAVQFTETFLTERDKQSKWSGIPQLLLKLHTTSHLHSDFVECQNILKEISPLLSMEAMAFVTEERKLTQETTYPNTYIFDLFGGVDLLVEILMRPTISIRGQKLKISDEMSKDCLSILYNTCVCTEGVTKRLAEKNDFVIFLFTLMTSKKTFLQTATLIEDILGVKKEMIRLDEVPNLSSLVSNFDQQQLANFCRILAVTISEMDTGNDDKHTLLAKNAQQKKSLSLGPSAAEINQAALLSIPGFVERLCKLATRKVSESTGTASFLQELEEWYTWLDNALVLDALMRVANEESEHNQASIVFPPPGASEENGLPHTSARTQLPQSMKIMHEIMYKLEVLYVLCVLLMGRQRNQVHRMIAEFKLIPGLNNLFDKLIWRKHSASALVLHGHNQNCDCSPDITLKIQFLRLLQSFSDHHENKYLLLNNQELNELSAISLKANIPEVEAVLNTDRSLVCDGKRGLLTRLLQVMKKEPAESSFRFWQARAVESFLRGTTSYADQMFLLKRGLLEHILYCIVDSECKSRDVLQSYFDLLGELMKFNVDAFKRFNKYINTDAKFQVFLKQINSSLVDSNMLVRCVTLSLDRFENQVDMKVAEVLSECRLLAYISQVPTQMSFLFRLINIIHVQTLTQENVSCLNTSLVILMLARRKERLPLYLRLLQRMEHSKKYPGFLLNNFHNLLRFWQQHYLHKDKDSTCLENSSCISFSYWKETVSILLNPDRQSPSALVSYIEEPYMDIDRDFTEE
Turning to B1, the binding result in assay [1] is reported as “binds”.

B2: SNRNP40, Q96DI7 1-357 (protein)
chain: MIEQQKRKGPELPLVPVKRQRHELLLGAGSGPGAGQQQATPGALLQAGPPRCSSLQAPIMLLSGHEGEVYCCKFHPNGSTLASAGFDRLILLWNVYGDCDNYATLKGHSGAVMELHYNTDGSMLFSASTDKTVAVWDSETGERVKRLKGHTSFVNSCYPARRGPQLVCTGSDDGTVKLWDIRKKAAIQTFQNTYQVLAVTFNDTSDQIISGGIDNDIKVWDLRQNKLTYTMRGHADSVTGLSLSSEGSYLLSNAMDNTVRVWDVRPFAPKERCVKIFQGNVHNFEKNLLRCSWSPDGSKIAAGSADRFVYVWDTTSRRILYKLPGHAGSINEVAFHPDEPIIISASSDKRLYMGEIQ
B2: the binding entry in assay [2] was “binds”.

B3: WDTC1 (protein, UniProt Q8N5D0 1-677)
chain: MAKVNITRDLIRRQIKERGALSFERRYHVTDPFIRRLGLEAELQGHSGCVNCLEWNEKGDLLASGSDDQHTIVWDPLHHKKLLSMHTGHTANIFSVKFLPHAGDRILITGAADSKVHVHDLTVKETIHMFGDHTNRVKRIATAPMWPNTFWSAAEDGLIRQYDLRENSKHSEVLIDLTEYCGQLVEAKCLTVNPQDNNCLAVGASGPFVRLYDIRMIHNHRKSMKQSPSAGVHTFCDRQKPLPDGAAQYYVAGHLPVKLPDYNNRLRVLVATYVTFSPNGTELLVNMGGEQVYLFDLTYKQRPYTFLLPRKCHSSGEVQNGKMSTNGVSNGVSNGLHLHSNGFRLPESRGHVSPQVELPPYLERVKQQANEAFACQQWTQAIQLYSKAVQRAPHNAMLYGNRAAAYMKRKWDGDHYDALRDCLKAISLNPCHLKAHFRLARCLFELKYVAEALECLDDFKGKFPEQAHSSACDALGRDITAALFSKNDGEEKKGPGGGAPVRLRSTSRKDSISEDEMVLRERSYDYQFRYCGHCNTTTDIKEANFFGSNAQYIVSGSDDGSFFIWEKETTNLVRVLQGDESIVNCLQPHPSYCFLATSGIDPVVRLWNPRPESEDLTGRVVEDMEGASQANQRRMNADPLEVMLLNMGYRITGLSSGGAGASDDEDSSEGQVQCRPS
Consider B3, for which the binding entry in assay [3] and in assay [1] was “binds” throughout.

These data come from article PMC10565876.
